The test addresses T1, glycoprotein C (gC) of oHSV (oHSV (oncolytic herpes simplex virus; type and strain not stated)) (UniProt P10228).
T1 sequence: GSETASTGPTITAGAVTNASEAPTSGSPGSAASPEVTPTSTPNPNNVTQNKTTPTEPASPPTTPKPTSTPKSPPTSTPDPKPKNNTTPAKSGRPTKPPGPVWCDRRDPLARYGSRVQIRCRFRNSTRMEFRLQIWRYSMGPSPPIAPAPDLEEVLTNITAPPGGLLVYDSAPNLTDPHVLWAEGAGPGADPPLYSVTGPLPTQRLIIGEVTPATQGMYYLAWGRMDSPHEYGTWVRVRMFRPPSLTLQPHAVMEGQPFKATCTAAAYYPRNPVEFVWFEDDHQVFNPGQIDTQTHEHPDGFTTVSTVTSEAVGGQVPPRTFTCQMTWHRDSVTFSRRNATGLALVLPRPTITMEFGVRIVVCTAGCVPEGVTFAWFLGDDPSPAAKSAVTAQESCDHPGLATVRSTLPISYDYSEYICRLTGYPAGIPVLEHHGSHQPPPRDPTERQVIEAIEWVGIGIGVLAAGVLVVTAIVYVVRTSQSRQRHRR
The test is described as follows: affinity purification with mass spectrometry; IP of OVTOKO, TR127 and JHOC cell proteins with antibodies against oHSV gC (and gD); SDS-PAGE, Coomassie; the 25 kDa band from OVTOKO cells identified by mass spectrometry.

Protein sequences, listed by entry. Tags and fused reporters are not part of them.
UniProt Q6UW68: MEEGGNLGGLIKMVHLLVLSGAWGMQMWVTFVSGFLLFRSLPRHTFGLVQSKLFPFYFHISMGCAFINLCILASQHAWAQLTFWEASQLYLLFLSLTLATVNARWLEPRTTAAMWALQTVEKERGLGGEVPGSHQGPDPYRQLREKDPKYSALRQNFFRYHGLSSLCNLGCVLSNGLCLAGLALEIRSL

These are yes or no findings as the source states them, for the method shown. In cells and extracts the contact can be indirect. A yes stands for co-enrichment or nearness to the bait. Other partners may have been found.

As to TMEM205 (from UniProt Q6UW68 1-189), the binding result is listed as “binds”.

These data come from PMC9730683.
